PubChem BioAssay AID588497 (NMMLSC, 2011)
About 780 (0.22%) of roughly 360,000 compounds were called active. The shares of active, inactive and inconclusive entries below differ from those in the screen. Cut-off read from the data, not from the text of the source: active = inhibition above about 35% (passing the limit was not always enough); inconclusive = no clear call, values can overlap the other calls.

tested on: Botulinum neurotoxin type F light chain protease (Clostridium botulinum); assay: BoNT/F light chain protease inhibitors, primary screen, biochemical, flow cytometry, MLPCN library (AID 588497); details: Multiplex microsphere protease cleavage assay, at 10 µM, stronger effect = higher value; note: plate controls were buffer without enzyme for full effect and enzyme alone for no effect

| Structure (SMILES) | inhibition |
| --- | --- |
| CCOC(=O)C1=C(COC(=O)CCCOc2ccccc2)NC(=O)NC1C (stereo not drawn) | inactive: 5.2% |
| N#C/C(=C\c1c[nH]c2ccccc12)C(N)=O | inconclusive: -30.5% |
| O=C(CN1CCN(Cc2ccccc2Cl)CC1)N/N=C/c1cccs1 | inconclusive: -21.7% |
| COc1ccc(CN(CCC#N)CCC2(c3ccccc3)CC(C)N(C)CC2C)cc1OC (stereo not drawn) | inconclusive: -22.8% |
| Clc1ccc(CSc2nnc(-c3ccncc3)o2)c(Cl)c1 | inconclusive: -19.5% |
| O=C(CN1C(=O)CCC1=O)Nc1ccc2c3c(cccc13)CC2 | inconclusive: 43.7% |
| COC(=O)c1ccccc1N(C)S(C)(=O)=O | inconclusive: 11.4% |
| O=C(NC1CCCCC1)N1CCNCC1 | inconclusive: -9% |
| CCOC(=O)CCCCC(=O)c1[nH]c(=O)[nH]c1CSc1nc2ccccc2[nH]1 | active: 36.5% |
| Cn1c(=O)c2cnc(-c3ccc(C(F)(F)F)cc3)nc2n(C)c1=O | inconclusive: -23.6% |
| COc1ccc(Br)cc1S(=O)(=O)N1CCCc2ccccc21 | inconclusive: 11.8% |
| Nc1cccnc1S(=O)(=O)c1cccc(C(F)(F)F)c1 | inconclusive: -64.3% |
| CC(C)(C)c1cc(OC(=O)C2CCCC2)ccc1O | inconclusive: 4.6% |
| COc1ccc(-c2ccc3c(c2)c(-c2cccs2)c(-c2cc(OC)cc(OC)c2)n3C)cc1 | inactive: -4.4% |
| c1ccc(-c2nnc3n2-c2ccccc2SC3)cc1 | inactive: 1.1% |
| Clc1cccc(CN2CCCCCC2)c1 | inconclusive: 40.4% |
| Cc1ccc(C(=O)N/C(=C\c2cccs2)C(=O)NCCCn2ccnc2)cc1 | inactive: 6% |
| CN1CCSc2ccc(C(=O)NCc3cccc(F)c3)cc21 | inactive: 0% |
| COc1ccc(OC)c(CC(=O)N(C)C2CCCN(Cc3ccccc3F)C2)c1 (stereo not drawn) | inconclusive: 31.8% |
| Cn1nc(C(C)(C)C)c(NC(=O)c2sccc2Cl)c1C(C)(C)C | inconclusive: -8.4% |
| CCCCNC(=O)C[C@@H]1C[C@@]2(C(=O)OC)CCCCC=C2N(Cc2ccc(Cl)cc2Cl)C1=O | inactive: -8.8% |
| COc1cc2c(cc1OC)C(c1ccccc1C)CC(=O)N2 (stereo not drawn) | inactive: 1.9% |
| Cc1cc(C)c(S(=O)(=O)N2CCN(C(=O)N3CCCCC3)CC2)c(C)c1 | inconclusive: -9.9% |
| CC(C)(C)Nc1cccccc1=O | inconclusive: 12.9% |

Pulled by compound from the entries so far, 4 records:

| Structure (SMILES) | inhibition |
| --- | --- |
| COC(=O)c1ccccc1N(C)S(C)(=O)=O | inconclusive: 11.4% |
| CCOC(=O)CCCCC(=O)c1[nH]c(=O)[nH]c1CSc1nc2ccccc2[nH]1 | active: 36.5% |
| Clc1ccc(CSc2nnc(-c3ccncc3)o2)c(Cl)c1 | inconclusive: -19.5% |
| CC(C)(C)Nc1cccccc1=O | inconclusive: 12.9% |

Following part:

| Structure (SMILES) | inhibition |
| --- | --- |
| COCCCNC(=S)Nc1ccc(C)cc1 | inconclusive: 30.5% |
| O=C(Nc1ccc(F)cc1)N1CCCN(c2nccc(C(F)(F)F)n2)CC1 | inconclusive: -140% |
| O=C(CN1c2ccccc2Sc2ccccc21)NNC(=O)Nc1cccc(Cl)c1 | inconclusive: -5.2% |
| Cc1ccc(NC(=O)c2cc([N+](=O)[O-])ccc2NCc2cccnc2)cc1Cl | inconclusive: -9.6% |
| NC(N)=N/N=C/c1ccc(N(c2ccccc2)c2ccccc2)cc1 | inconclusive: -7.5% |
| CN(C)c1ccc(/C=C(\C#N)C(=O)Nc2nc3c(s2)CCN(Cc2ccccc2)C3)cc1 | active: 57.5% |
| Cc1nnc2n1N=CC=C(c1ccccc1)S2 | inactive: 6.9% |
| Cc1cc2ccccc2n1CCNC(=O)c1ccccc1 | inconclusive: -96.1% |
| CCN=C1S/C(=C\c2cc(OCC)c(O)cc2Br)C(=O)N1CC | active: 72.5% |
| CSc1ccccc1C(=O)NC1CC2CCC1C2 (stereo not drawn) | inactive: -10% |
| Clc1ccc(C(CCN2CCCC2)Cc2ccccc2)cc1 (stereo not drawn) | inconclusive: -0.3% |
| CC(=O)Nc1cc(C(=O)CSc2nnc(C3CC3)n2C2CC2)ccc1O | inconclusive: 2.1% |
| CC1(C)Cc2cccc(C(=O)Nc3ccc(F)cc3F)c2O1 | inconclusive: -83.5% |
| Cc1ccc(S(=O)(=O)NCc2ccc3c(c2)OCO3)cc1C | inconclusive: -17.8% |
| O=C(Nc1cccc(Oc2ccc(C(=O)O)c(C(=O)O)c2)c1)c1ccc(-c2ccccc2)cc1 | inactive: 5.1% |
| CC(C)(C)c1ccc(C(=O)NCC(=O)NNC(=O)c2ccccc2O)cc1 | inconclusive: 16.5% |
| C=CCn1c(O)c(C=NCCCn2ccnc2)c(=O)[nH]c1=O | inconclusive: 21.7% |
| CC1(C)Cc2cccc(C(=O)Nc3ccc(Cl)cc3)c2O1 | inconclusive: 0.5% |
| COc1ccc(N=Cc2c(OC)ccc3ccccc23)cc1 | inconclusive: 67.3% |
| O=C(O)c1ccc(Br)cn1 | inactive: -1.9% |
| O=C(NCCOC(=O)c1ccccc1)c1ccccc1 | inactive: -7.7% |
| Nc1ccc(-c2cc3ccccc3oc2=O)cc1 | inconclusive: -0.2% |
| CCC(=O)c1ccc(N2CCCCC2)c(F)c1 | inactive: -1.8% |
| CCCN(CCC)S(=O)(=O)c1ccc(NS(C)(=O)=O)cc1 | inactive: -6% |

| Structure (SMILES) | inhibition |
| --- | --- |
| O=C(CN1c2ccccc2S(=O)(=O)c2ccccc21)NCc1ccc(F)cc1 | inactive: -5.2% |
| Cc1ccc(-n2c(SCC(=O)Nc3ccc(C(=O)O)cc3)nnc2-c2ccncc2)cc1 | inactive: -3.2% |
| Cc1ccc(-n2nc(C)c3onc(C)c3c2=O)cc1 | inconclusive: 56.1% |
| CCc1ccc(NC(=O)N(Cc2ccco2)C(C)c2cccs2)cc1 (stereo not drawn) | inactive: -8.2% |
| O=C1NC(=S)N/C1=C/c1cccc([N+](=O)[O-])c1O | inactive: -5.3% |
| O=C(NNC(=O)c1ccccc1OCc1ccc(F)cc1)c1ccncc1 | inconclusive: -5.7% |
| COc1ccc(S(=O)(=O)N(CCC(N)=O)Cc2ccco2)cc1OC | inconclusive: -60.8% |
| O=C(NCc1ccc(Cl)cc1)C1CCCN1C(=O)Nc1ccc(F)cc1 (stereo not drawn) | inconclusive: -2.7% |
| O=C(O)CCCC(=O)Nc1ccc(Br)cc1 | inactive: 0.1% |
| CCOC(=O)c1c(SCc2ccccc2)n[nH]c1N | inconclusive: 11.2% |
| CCCSc1nnc(Sc2nnnn2-c2ccccc2)s1 | inconclusive: 7.1% |
| Cc1ccc(-c2nn(C)c(=O)c3ccccc23)cc1S(=O)(=O)N1CCOCC1 | inactive: -13.3% |
| CCCCn1c(=O)c(-[n+]2ccccc2)c([O-])c2ccccc21 | inconclusive: 48.6% |
| Cc1ccc(C)c(OCC(=O)O/N=C(\N)c2cccnc2)c1 | inconclusive: 40.1% |
| COc1cc(NC(=S)NC(=O)c2ccccc2C)ccc1NC(=O)c1cccs1 | inconclusive: -8.2% |
| CN1/C(=C\C(=O)Nc2ccc(Cl)cc2)C(C)(C)c2ccccc21 | inconclusive: -10.8% |
| Cc1cccc(NC(=O)CNC(=O)c2sc3ccccc3c2Cl)n1 | inconclusive: -124% |
| O=C(CN1CCCC1)Nc1cc(C(F)(F)F)cc(C(F)(F)F)c1 | inconclusive: 17.9% |
| CC(=O)Nc1cc2nc(C)n(Cc3ccc([N+](=O)[O-])cc3)c2nc1C | inconclusive: 14.2% |
| Cc1cc(C)cc(OCC(=O)Nc2ccc(N3CCCCC3)cc2)c1 | inconclusive: -22% |
| CC(C)(C)c1ccc(-c2nnc(SCC(=O)O)n2N)cc1 | inactive: 3.2% |
| CCn1nc(C)cc1C(=O)n1nc(C)c(Sc2ncccn2)c1C | inconclusive: 8.7% |
| COc1ccc(NC(=O)c2cc(C3CCCCN3C(=O)c3ccc4c(c3)CCO4)on2)c(C)c1 (stereo not drawn) | inactive: 2% |
| O=C1c2ccccc2C(=O)c2c([N+](=O)[O-])ccc(O)c21 | inconclusive: -23.4% |

| Structure (SMILES) | inhibition |
| --- | --- |
| C=C1C(=O)O[C@@H]2C[C@@H](C)[C@@H]3C=CC(=O)[C@@]3(C)[C@@H](OC(=O)CC(=O)O[C@H]3[C@@H]4C(=C)C(=O)O[C@@H]4C[C@@H](C)[C@@H]4C=CC(=O)[C@]43C)[C@H]12 | inactive: -4.9% |
| O=C(c1ccc(C(=O)N2CCOCC2)s1)N1CCOCC1 | inconclusive: -45.3% |
| O=C1CC(N2CCOCC2)=NN1c1ccc([N+](=O)[O-])cc1 | inconclusive: -79% |
| c1ccc2c(OCCCCN3CCCC3)cccc2c1 | inconclusive: -67.5% |
| CCC1(C)CC2(CCCN(CCC(O)(c3ccccc3)c3ccccc3)C2)CCO1 (stereo not drawn) | inconclusive: -1.6% |
| CCN(CCCNC(=O)COc1cc(=O)n(C)c2ccccc12)c1cccc(C)c1 | inactive: 4.4% |
| COc1ccc(Nc2nc(NCC3CCCO3)nc(N)c2[N+](=O)[O-])cc1 (stereo not drawn) | inconclusive: 5.1% |
| O=C1CC2(CCN(C(=O)c3ccccc3F)CC2)Oc2ccccc21 | inconclusive: 7.9% |
| CCOC(=O)N1CCN(CC(=O)Nc2nc3ccc(OC)cc3s2)CC1 | inconclusive: -35.5% |
| CNc1nc(Sc2ccccc2)cc(C(F)(F)F)n1 | inconclusive: -3.5% |
| O=C(Cc1ccccc1Cl)NCc1cccnc1 | inconclusive: 3% |
| COc1cccc(CNC(=O)CCNC(=O)c2ccco2)c1 | inconclusive: 1.7% |
| COc1ccc(S(=O)(=O)N2c3cc(Cl)ccc3Oc3nc4ccccc4nc32)cc1 | inactive: 6.8% |
| O=c1[nH]c(CN2CCCCC2)nc2c1C1(CCCCC1)Cc1ccccc1-2 | inconclusive: -11.1% |
| CCNc1nc2c(c(=O)[nH]c(=O)n2C)n1CCCc1ccccc1 | inconclusive: -7.5% |
| COC1(OC)C=CC(=O)C=C1NC(=O)c1ccccc1OC(C)=O | inactive: -3.3% |
| COC(=O)/C=C1\S/C(=N\N=C\CC(=O)OC)NC1=O | inconclusive: 21.5% |
| CCOC(=O)C1=C(COC(=O)CCOc2ccccc2C)NC(=O)NC1C (stereo not drawn) | inconclusive: -8.2% |
| COc1ccc(C(=O)C=CNNC(=O)c2ccc(Cl)cc2)cc1 | inconclusive: 8.8% |
| CCOC(=O)/C(=C\C=C1/Sc2cc(OCC)c(OCC)cc2N1CC)C(C)=O | active: 48.9% |
| COc1ccc(S(=O)(=O)N2CCN(c3ccccc3OC)CC2)cc1OC | inconclusive: -7.2% |
